Data: publication PMC7070046
These are yes or no findings as the source states them, for the method shown. Binding seen in cells or lysates may run through a third protein. A yes stands for co-enrichment or nearness to the bait. Other partners may have been found. Tags and fused reporters may be left off the sequences shown.

Target: T1, His-GFP-SSSCA1 (SSSCA1 FL, residues A2-H199) (human) (UniProt O60232)
T1 sequence: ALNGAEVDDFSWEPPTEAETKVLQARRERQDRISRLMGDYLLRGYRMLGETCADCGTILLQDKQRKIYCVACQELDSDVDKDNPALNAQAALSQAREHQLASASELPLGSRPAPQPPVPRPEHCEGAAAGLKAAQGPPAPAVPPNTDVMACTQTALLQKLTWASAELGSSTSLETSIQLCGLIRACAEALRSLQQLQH
Test: affinity purification with mass spectrometry; tandem-affinity purification (His SpinTrap, then GFP-Trap A beads) of His-GFP-SSSCA1 from lysates of transfected HeLa, SW480 or LNCaP cells, 18 h after transfection; 50 mM HEPES pH 7.4, 150 mM NaCl, 5% glycerol, 0.5% NP40; gel slices, LC-MS/MS

- binding: binds
B1: rRNA methyltransferase MRM2, endogenous (enzyme, UniProt Q9UI43 19-246)
chain: TVGSRCKNRTGAEHLWLTRHLRDPFVKAAKVESYRCRSAFKLLEVNERHQILRPGLRVLDCGAAPGAWSQVAVQKVNAAGTDPSSPVGFVLGVDLLHIFPLEGATFLCPADVTDPRTSQRILEVLPGRRADVILSDMAPNATGFRDLDHDRLISLCLTLLSVTPDILQPGGTFLCKTWAGSQSRRLQRRLTEEFQNVRIIKPEASRKESSEVYFLATQYHGRKGTVKQ
